This is an account of results in article PMC7343241.

Sequences of proteins named here, by UniProt entry; tags and fusion partners are left off. A change or cut given only in a name is not applied to a line headed by its entry.
UniProt Q8TDI8: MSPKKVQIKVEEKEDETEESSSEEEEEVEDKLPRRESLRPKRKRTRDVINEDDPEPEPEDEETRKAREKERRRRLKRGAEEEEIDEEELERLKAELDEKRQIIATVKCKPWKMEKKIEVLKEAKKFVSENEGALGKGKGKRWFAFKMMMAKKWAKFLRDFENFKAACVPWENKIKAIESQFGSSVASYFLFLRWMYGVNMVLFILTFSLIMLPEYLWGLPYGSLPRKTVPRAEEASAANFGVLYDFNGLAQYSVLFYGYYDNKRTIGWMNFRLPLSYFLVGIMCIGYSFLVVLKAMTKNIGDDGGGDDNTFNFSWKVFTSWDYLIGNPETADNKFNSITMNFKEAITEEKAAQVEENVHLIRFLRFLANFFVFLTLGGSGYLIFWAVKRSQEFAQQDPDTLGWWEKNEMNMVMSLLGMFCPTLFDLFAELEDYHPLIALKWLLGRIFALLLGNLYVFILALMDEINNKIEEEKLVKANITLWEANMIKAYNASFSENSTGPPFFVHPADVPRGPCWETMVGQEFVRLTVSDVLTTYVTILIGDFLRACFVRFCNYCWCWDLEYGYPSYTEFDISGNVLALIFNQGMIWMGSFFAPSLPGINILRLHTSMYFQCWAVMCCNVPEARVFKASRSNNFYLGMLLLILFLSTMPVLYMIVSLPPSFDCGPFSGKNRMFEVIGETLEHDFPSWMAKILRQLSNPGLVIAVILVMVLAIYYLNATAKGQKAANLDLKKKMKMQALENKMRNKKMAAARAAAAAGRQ
UniProt Q93640: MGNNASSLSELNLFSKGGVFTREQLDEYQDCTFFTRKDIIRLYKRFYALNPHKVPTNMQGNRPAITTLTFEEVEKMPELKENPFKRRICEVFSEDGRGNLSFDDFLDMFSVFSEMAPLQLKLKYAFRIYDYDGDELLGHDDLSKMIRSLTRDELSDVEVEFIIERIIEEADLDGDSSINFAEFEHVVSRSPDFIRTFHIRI
UniProt O75838: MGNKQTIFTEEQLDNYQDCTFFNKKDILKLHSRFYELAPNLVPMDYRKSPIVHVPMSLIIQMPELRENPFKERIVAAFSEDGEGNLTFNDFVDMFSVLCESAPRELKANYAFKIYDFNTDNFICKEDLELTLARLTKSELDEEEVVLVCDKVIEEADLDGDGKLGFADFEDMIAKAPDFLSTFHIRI

The target in experiment [1] is T1, GFP-tagged TMC-1 N-terminal fragment (TMC-1-N175-GFP) (C. elegans) (UniProt D3KZG3).
T1 sequence: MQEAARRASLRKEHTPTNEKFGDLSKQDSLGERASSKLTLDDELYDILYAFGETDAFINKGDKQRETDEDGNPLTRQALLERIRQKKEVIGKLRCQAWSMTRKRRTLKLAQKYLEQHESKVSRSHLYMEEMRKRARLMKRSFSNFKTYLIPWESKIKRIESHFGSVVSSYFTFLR
The experiment can be described thus: pull-down; GFP- or V5-tagged protein from lysate held on GFP-Trap or anti-V5 agarose beads, washed, then incubated overnight at 4°C with lysate of HEK293T cells; western blot; only the target purified.

In experiment [2] the target is T2, C. elegans TMC-1 (CHO-K1 cells) (C. elegans) (UniProt D3KZG3).
T2 sequence: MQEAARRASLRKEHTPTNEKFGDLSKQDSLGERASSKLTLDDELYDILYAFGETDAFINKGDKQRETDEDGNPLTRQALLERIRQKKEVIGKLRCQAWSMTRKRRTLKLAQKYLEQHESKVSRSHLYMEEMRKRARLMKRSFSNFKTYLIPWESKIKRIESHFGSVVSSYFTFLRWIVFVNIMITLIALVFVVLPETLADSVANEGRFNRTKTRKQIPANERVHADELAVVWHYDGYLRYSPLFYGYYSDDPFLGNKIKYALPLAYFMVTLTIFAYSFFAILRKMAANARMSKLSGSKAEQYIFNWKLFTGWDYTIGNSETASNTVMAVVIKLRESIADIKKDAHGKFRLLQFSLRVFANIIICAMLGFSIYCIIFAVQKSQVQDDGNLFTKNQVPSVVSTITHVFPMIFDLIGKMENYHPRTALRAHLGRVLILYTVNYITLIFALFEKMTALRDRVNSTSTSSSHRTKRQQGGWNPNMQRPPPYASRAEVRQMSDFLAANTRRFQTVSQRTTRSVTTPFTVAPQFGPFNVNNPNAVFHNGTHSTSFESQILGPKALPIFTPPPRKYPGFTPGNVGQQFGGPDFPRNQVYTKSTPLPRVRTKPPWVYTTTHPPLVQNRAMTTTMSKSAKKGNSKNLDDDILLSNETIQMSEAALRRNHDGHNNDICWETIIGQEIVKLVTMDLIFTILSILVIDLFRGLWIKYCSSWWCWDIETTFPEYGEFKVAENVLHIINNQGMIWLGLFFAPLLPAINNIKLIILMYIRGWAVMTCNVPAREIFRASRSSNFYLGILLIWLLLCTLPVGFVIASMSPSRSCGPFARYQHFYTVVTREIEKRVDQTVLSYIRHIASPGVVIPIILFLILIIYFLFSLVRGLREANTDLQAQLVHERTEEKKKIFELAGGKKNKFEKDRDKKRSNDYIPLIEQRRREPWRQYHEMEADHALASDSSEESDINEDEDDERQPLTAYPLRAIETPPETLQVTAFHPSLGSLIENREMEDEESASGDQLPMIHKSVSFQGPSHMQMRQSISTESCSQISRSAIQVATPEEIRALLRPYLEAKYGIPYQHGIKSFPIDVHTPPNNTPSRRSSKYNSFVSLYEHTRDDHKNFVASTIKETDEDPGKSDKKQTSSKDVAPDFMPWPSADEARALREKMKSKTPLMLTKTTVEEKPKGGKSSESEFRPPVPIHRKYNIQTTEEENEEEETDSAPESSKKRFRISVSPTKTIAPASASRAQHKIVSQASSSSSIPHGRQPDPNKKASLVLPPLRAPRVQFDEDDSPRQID
Briefly: FRET or BRET; acceptor photobleaching FRET in transfected, fixed and immunostained CHO-K1 cells; donor EGFP, acceptor Alexa Fluor 555.

Experiment [3] has as its target T3, C. elegans TMC-2 (FRET, CHO-K1 cells) (C. elegans) (UniProt Q11069).
T3 sequence: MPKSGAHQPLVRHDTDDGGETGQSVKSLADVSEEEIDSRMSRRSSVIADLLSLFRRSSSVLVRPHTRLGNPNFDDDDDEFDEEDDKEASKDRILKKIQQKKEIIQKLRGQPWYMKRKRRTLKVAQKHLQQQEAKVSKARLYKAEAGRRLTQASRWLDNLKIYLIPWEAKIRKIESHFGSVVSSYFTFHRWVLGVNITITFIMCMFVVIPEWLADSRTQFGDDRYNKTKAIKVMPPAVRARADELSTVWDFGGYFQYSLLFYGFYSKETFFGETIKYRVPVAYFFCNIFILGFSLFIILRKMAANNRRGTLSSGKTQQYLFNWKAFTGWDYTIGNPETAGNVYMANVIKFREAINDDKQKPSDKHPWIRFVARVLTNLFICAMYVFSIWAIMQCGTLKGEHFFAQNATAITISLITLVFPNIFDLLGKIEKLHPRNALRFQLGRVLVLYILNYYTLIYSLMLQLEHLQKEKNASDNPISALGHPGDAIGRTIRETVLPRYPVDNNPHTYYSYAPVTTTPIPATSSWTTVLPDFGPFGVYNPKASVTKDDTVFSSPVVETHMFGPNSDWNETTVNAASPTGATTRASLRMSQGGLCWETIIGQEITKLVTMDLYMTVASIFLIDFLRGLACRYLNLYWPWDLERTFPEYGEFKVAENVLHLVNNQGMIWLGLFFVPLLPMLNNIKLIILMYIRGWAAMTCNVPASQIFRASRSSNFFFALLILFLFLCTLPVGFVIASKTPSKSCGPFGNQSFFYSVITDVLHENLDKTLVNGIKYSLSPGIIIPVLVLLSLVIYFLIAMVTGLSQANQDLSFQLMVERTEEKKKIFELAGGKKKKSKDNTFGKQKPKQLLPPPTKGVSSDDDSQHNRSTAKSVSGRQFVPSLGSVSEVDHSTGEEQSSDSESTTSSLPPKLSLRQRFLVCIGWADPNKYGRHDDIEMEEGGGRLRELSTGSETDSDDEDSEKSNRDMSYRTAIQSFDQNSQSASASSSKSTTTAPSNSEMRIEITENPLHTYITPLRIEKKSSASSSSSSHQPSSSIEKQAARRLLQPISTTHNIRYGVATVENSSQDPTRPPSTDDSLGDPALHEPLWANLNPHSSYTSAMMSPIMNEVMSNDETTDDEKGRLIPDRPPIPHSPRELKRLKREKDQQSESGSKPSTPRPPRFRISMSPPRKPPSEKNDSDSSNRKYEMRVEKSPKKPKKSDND
The experiment is described as above.

The target in experiment [4] is human TMC1 (FRET, CHO-K1 cells) (human) (UniProt Q8TDI8). The description is as above.
Experiment [5] concerns the target T4, human TMC2 (FRET, CHO-K1 cells) (human) (UniProt Q8TDI7).
T4 sequence: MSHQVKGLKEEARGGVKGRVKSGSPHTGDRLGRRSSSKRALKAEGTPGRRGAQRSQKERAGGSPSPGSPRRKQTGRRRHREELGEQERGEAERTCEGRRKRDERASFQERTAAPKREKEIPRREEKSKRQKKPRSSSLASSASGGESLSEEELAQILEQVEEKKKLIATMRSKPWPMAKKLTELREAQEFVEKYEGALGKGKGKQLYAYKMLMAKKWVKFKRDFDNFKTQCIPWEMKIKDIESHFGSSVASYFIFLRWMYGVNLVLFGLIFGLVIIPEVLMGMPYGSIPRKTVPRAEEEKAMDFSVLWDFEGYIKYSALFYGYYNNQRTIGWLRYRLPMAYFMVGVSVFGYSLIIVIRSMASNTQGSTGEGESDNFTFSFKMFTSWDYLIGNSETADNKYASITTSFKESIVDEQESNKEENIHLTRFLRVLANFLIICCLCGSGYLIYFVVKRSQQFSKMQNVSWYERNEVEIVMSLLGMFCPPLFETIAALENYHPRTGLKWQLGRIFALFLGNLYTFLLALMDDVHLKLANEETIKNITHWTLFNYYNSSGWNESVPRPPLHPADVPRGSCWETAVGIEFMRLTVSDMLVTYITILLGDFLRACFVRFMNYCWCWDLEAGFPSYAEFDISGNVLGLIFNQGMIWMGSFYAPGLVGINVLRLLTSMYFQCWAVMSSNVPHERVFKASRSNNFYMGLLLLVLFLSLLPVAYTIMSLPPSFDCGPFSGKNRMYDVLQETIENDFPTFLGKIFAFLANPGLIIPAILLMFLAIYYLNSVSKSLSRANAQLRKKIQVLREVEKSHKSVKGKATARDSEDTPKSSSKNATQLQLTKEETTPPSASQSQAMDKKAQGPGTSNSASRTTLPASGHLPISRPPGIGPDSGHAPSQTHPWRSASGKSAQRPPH
The description is as above.

Experiment [6] concerns the target human TMC1 N terminus (coIP, HEK293T) (human) (UniProt Q8TDI8). The experiment can be described thus: co-IP; transfected HEK293T cells, lysis in 150 mM NaCl, 25 mM Tris-HCl, 1% NP-40, 1 mM EDTA, 5% glycerol, pH 7.4; GFP-Trap or anti-V5 agarose overnight at 4°C; western blot.

Results are given in words; binding and its absence hold for the method and conditions named. In cells and extracts the contact can be indirect. Binding calls can cover weak binding; strength is not graded here. For part of these data: Sequences can lack the tags named with a protein.

For the substance “3×FLAG-tagged CALM-1 (CALM-1-3×FLAG) (C. elegans)”, the binding entry in experiment [1] is on record as “binds”.

For the substance “C. elegans CALM-1 (FRET, CHO-K1 cells) (from UniProt Q93640)”, the binding result in experiment [2], in experiment [3], in experiment [4] and in experiment [5] was “binds” in each case.

In the case of “human CIB2 (coIP, HEK293T) (from UniProt O75838 1-187)”, the binding entry in experiment [6] is given as “binds”.
